# Experimental data reported in PubChem BioAssay AID2685 (National Center for Advancing Translational Sciences (NCATS), 2010).
# The list shows a part of the results. Shown are side measurements of this screen, not its main read-out; they come without a call. Compounds called inactive in the main read-out are mostly missing here. Words in brackets tell the shape of the fitted curve; partial curves, single points and poor fits give uncertain potencies. Where a SMILES comes first, the peptide text is derived from it.
# Assay: qHTS Assay for Lipid Storage Modulators in Drosophila S3 Cells;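 for cell number change: cells counted by Cell Tracker Red CMTPX staining in the red channel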
# Conditions: BODIPY lipid droplet fluorescence, 18-24 h; for cell number change: measured here: cell count max response, cells fed with added oleic acid
# How it was run: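 Drosophila S3 cells loaded with oleic acid (400 uM, as added) and compounds at several concentrations; lipid droplets imaged by 488-nm laser-scanning cytometry, 500–530 nm intensity and object ratio to cell channel. Percent activity normalized to 20 uM Triacsin C.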
# [1] = measured here: lipid fluorescence (Fed channel) AC50, cells fed with added oleic acid
# [2] = measured here: cell number channel AC50, cells fed with added oleic acid
smiles,measurement,setting,value
Cc1cccc(Oc2ccc(NS(=O)(=O)c3ccc(C)c(C(=O)O)c3)cc2)c1,cell number change,,5.29%
O=C(Nc1ccc2c(c1)OCCO2)c1ccccn1,AC50,[1],"0.13 µM [rising, single point]"
COc1cccc(C2C(C(=O)OC(C)C)=C(C)N=c3s/c(=C\c4ccc(C(=O)O)cc4)c(=O)n32)c1 (stereo not drawn),cell number change,,17.4%
O=C(CN1C(=O)CSc2ncccc21)NCCN1CCOCC1,cell number change,,12%
same,AC50,[1],"0.184 µM [rising, full curve, poor fit]"
Cc1ccc(NC(=O)CSCC#N)cc1,cell number change,,30.9%
same,AC50,[2],"6.51 µM [rising, partial curve]"
C/C(N)=C(/C#N)C(=O)CSc1nncn1-c1ccccc1,AC50,[1],"6.51 µM [falling, partial curve]"
CCc1cccc2c(C(=O)CN3C(=O)N(C)C4(CCCCC4)C3=O)c[nH]c12,cell number change,,-11.7%
COc1ccc(S(=O)(=O)N2CCN(C(=O)c3cc(-c4ccc(Br)cc4)n[nH]3)CC2)cc1OC,cell number change,,-39%
same,AC50,[2],"13 µM [falling, partial curve, poor fit]"
CCCCC(=O)Nc1cc(C)c(NC(=O)c2cccs2)cn1,cell number change,,1.01%
same,AC50,[1],"29.1 µM [falling, single point]"
CCSC1=N/C(=C\c2ccc(C(=O)O)cc2)C(=O)S1,cell number change,,3.97%
same,AC50,[1],"5.8 µM [rising, partial curve]"
Cc1cccc(NS(=O)(=O)c2cccc(C(=O)N3CCN(c4ccccn4)CC3)c2)c1,cell number change,,-14.4%
same,AC50,[1],"14.1 µM [falling, single point]"
CCOc1ccccc1NC(=O)CSc1nnc2c(CC)c(C)nc(N)n12,AC50,[2],"4.11 µM [rising, single point]"
same,AC50,[1],"2.91 µM [rising, partial curve]"
O=C(COC(=O)C1COc2ccccc2O1)Nc1ccc2c(c1)CCC2 (stereo not drawn),cell number change,,2.73%
Cc1ccccc1NC(=O)CN1C(=O)C2C3CC(C(Br)C3Br)C2C1=O (stereo not drawn),cell number change,,10.7%
CCOc1ccc(CSC(=N)N)cc1[N+](=O)[O-],cell number change,,17.2%
same,AC50,[1],"1.03 µM [falling, full curve]"
CCOc1ccc(C(=O)CCC(=O)Nc2ccccc2C)cc1,cell number change,,31.6%
COc1ccc2c(c1)c(N=O)c(O)n2C,cell number change,,2.49%
same,AC50,[1],"3.26 µM [rising, single point]"
COc1ccc(OC)c(NC(=O)CNC(=O)Cn2cnc3sc(C)cc3c2=O)c1,cell number change,,44.3%
same,AC50,[2],"32.6 µM [rising, single point]"
COC(=O)CCC(=O)c1oc2ccc(OC)cc2c1N,cell number change,,91.1%
same,AC50,[2],"11.6 µM [rising, partial curve]"
same,AC50,[1],"20.6 µM [rising, partial curve]"
CCOc1ccc(N(CC(=O)NCc2ccc(C)cc2)S(=O)(=O)c2c(C)[nH]c(=O)[nH]c2=O)cc1,cell number change,,-8.37%
same,AC50,[1],"6.51 µM [falling, single point]"
Cc1ccc(C2C(C(=O)c3sc(C)nc3C)=C(O)C(=O)N2CCCN(C)C)o1 (stereo not drawn),cell number change,,-9.4%
CCS(=O)(=O)N1CCCC(C(=O)c2ccc(OC)cc2C)C1 (stereo not drawn),cell number change,,8.83%
same,AC50,[1],"0.0164 µM [rising, full curve, poor fit]"
FC(F)(F)c1cnc(Oc2ccccc2-c2nnc(-c3ccc(Cl)cc3)o2)c(Cl)c1,cell number change,,-4.07%
same,AC50,[2],"1.46 µM [rising, partial curve]"
same,AC50,[1],"2.06 µM [rising, partial curve]"
COC(=O)C(CC(C)C)NC(=O)C(N)Cc1ccccc1 (stereo not drawn) (H-Phe-Leu-OMe; configuration not given here),cell number change,,-8.09%
CCOC(=O)C(C)N1C(=O)S/C(=C/c2cc(C)n(-c3ccncc3)c2C)C1=O (stereo not drawn),cell number change,,-48.7%
same,AC50,[2],"20.6 µM [falling, single point]"
same,AC50,[1],"23.1 µM [falling, partial curve]"
CC(C)n1cc(CN2CCCC(C(=O)Nc3cccc(-c4cc5ccccc5[nH]4)c3)C2)cn1 (stereo not drawn),AC50,[1],"6.51 µM [rising, single point]"
COc1ccccc1NCC(O)Cn1c2ccccc2c2ccccc21 (stereo not drawn),cell number change,,-45.9%
same,AC50,[2],"25.9 µM [falling, single point]"
O=C(CCc1ccccc1)NC1(Cc2ccccc2)CCN(CCc2cccs2)C1=O (stereo not drawn),cell number change,,-4.01%
same,AC50,[1],"4.11 µM [falling, single point]"
CC(C)N(CCNC(=O)c1cn(C)c2ccc(S(=O)(=O)N(C)C)cc2c1=O)Cc1ccccc1,cell number change,,-24.5%
same,AC50,[1],"2.06 µM [falling, partial curve]"
CN1CCC(N(C)CC(=O)Nc2cccc(Oc3ccccc3)c2)CC1,cell number change,,-8.21%
same,AC50,[1],"29.1 µM [falling, single point]"
COc1ccc(CCN(C)C(=O)CSc2nnc(C3CC3)n2N)cc1OC,cell number change,,-10.6%
same,AC50,[1],"6.51 µM [rising, single point]"
O=C(C[n+]1ccccc1)N/N=C/c1ccc(C(=O)O)cc1,cell number change,,-14.3%
same,AC50,[2],"0.259 µM [rising, single point]"
CN(C)S(=O)(=O)N(CC(=O)Nc1ccccc1C(F)(F)F)c1ccccc1,cell number change,,-10.6%
same,AC50,[2],"6.51 µM [falling, single point]"
O=C(COC(=O)c1c[nH]c(=O)[nH]c1=O)Nc1ccccc1Br,cell number change,,30.9%
same,AC50,[2],"0.291 µM [rising, full curve]"
CC1(C2CC2)NC(=O)NC1=O (stereo not drawn),cell number change,,3.43%
same,AC50,[2],"1.16 µM [falling, full curve]"
same,AC50,[1],"0.651 µM [falling, single point]"
COc1ccc(-n2cnnc2SCC(=O)N2CCN(c3ccccc3)CC2)cc1,AC50,[2],"2.31 µM [rising, partial curve]"
Cc1ccc(NC(=O)CCC(=O)n2nc(C)cc2C)c(C)c1,AC50,[1],"25.9 µM [falling, partial curve]"
O=C1CCN(C(=O)Nc2cccc(Cl)c2)N1,cell number change,,4.58%
Cc1cccc(Oc2ccccc2NC(=O)CSCC(=O)Nc2cc(C)on2)c1,cell number change,,39.1%
same,AC50,[2],"13 µM [rising, single point]"
Fc1ccc(CNC(=S)Nc2ccccc2F)cc1,cell number change,,-11.8%
same,AC50,[1],"6.51 µM [rising, single point]"
CNc1oc(-c2ccc(OCc3ccccc3)cc2)nc1C#N,cell number change,,-39.2%
same,AC50,[2],"29.1 µM [falling, single point]"
same,AC50,[1],"16.4 µM [falling, partial curve]"

# 2 consecutive entries already listed, for reference:
smiles,measurement,setting,value
CCOc1ccc(N(CC(=O)NCc2ccc(C)cc2)S(=O)(=O)c2c(C)[nH]c(=O)[nH]c2=O)cc1,AC50,[1],"6.51 µM [falling, single point]"
Cc1ccc(C2C(C(=O)c3sc(C)nc3C)=C(O)C(=O)N2CCCN(C)C)o1 (stereo not drawn),cell number change,,-9.4%
